Source: the supplement of paper PMC11732987, “Enantioselective OTUD7B fragment discovery through chemoproteomics screening and high-throughput optimisation” (Communications Chemistry, 2025)
The list shows a part of the results. The data scatter; read single values as rough.

By UniProt entry, the sequences of proteins in these tests, tags left out. Where a name states a change or a piece, a line headed by the entry shows the natural chain unless it says otherwise. Residues count along the entry.
UniProt Q9H9Y6, whole entry, looked up: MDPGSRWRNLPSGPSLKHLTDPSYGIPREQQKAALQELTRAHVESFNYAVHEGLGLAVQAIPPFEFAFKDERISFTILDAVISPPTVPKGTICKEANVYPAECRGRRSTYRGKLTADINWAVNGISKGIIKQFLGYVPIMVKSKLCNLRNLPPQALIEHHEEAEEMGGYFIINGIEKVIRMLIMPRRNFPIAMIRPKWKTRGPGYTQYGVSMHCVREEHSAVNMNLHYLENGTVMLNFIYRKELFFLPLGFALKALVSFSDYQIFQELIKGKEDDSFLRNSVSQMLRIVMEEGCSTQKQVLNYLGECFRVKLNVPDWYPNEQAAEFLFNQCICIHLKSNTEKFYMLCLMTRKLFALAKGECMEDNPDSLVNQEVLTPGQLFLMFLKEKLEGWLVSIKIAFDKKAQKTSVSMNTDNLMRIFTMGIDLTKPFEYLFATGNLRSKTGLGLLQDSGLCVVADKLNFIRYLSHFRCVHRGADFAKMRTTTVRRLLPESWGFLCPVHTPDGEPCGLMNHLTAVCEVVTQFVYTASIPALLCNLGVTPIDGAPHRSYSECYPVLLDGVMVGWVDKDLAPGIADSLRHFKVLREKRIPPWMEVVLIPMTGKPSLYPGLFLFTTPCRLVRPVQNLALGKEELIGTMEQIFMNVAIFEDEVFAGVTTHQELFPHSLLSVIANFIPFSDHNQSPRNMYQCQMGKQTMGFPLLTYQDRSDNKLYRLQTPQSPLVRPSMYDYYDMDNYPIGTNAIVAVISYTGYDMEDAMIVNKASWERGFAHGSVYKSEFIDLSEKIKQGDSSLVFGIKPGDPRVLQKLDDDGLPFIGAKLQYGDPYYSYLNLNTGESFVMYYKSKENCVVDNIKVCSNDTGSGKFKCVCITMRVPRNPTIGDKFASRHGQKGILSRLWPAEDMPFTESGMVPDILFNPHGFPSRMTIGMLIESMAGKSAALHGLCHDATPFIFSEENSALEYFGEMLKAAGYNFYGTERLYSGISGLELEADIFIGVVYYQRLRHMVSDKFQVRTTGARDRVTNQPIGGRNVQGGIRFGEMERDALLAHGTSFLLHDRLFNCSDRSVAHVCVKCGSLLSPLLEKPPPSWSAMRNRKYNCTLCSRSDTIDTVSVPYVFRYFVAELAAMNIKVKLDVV
UniProt Q16512, 569-606: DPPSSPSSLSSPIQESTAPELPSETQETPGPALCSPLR
UniProt P28340: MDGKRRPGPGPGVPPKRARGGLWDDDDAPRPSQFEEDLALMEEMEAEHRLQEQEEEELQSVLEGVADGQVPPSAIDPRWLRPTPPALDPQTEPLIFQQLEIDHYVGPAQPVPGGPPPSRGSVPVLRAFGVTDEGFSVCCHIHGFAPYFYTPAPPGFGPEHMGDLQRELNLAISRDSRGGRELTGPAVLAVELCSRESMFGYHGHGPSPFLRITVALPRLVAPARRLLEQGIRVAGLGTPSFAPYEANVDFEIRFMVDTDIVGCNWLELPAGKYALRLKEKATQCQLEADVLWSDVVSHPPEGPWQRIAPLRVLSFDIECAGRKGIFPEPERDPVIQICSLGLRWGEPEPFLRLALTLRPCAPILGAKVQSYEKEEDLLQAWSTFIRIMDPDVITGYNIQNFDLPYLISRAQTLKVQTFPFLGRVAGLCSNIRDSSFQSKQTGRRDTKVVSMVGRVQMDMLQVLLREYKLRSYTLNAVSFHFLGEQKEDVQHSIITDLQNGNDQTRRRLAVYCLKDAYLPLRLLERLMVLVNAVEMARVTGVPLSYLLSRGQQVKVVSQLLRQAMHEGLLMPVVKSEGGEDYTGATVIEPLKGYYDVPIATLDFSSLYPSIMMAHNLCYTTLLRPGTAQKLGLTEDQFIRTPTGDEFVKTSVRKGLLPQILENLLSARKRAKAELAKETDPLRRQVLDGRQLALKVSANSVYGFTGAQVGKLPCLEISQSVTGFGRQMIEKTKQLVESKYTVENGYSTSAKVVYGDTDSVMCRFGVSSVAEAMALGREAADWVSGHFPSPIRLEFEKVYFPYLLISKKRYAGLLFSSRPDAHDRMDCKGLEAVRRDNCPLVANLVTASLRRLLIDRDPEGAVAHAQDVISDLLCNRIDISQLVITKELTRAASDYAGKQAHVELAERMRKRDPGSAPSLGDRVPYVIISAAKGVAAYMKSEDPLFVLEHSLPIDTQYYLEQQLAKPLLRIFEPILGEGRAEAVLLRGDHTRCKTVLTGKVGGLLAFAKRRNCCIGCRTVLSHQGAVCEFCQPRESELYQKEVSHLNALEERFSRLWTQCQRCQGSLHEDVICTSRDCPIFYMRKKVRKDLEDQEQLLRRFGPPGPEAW
UniProt O00329: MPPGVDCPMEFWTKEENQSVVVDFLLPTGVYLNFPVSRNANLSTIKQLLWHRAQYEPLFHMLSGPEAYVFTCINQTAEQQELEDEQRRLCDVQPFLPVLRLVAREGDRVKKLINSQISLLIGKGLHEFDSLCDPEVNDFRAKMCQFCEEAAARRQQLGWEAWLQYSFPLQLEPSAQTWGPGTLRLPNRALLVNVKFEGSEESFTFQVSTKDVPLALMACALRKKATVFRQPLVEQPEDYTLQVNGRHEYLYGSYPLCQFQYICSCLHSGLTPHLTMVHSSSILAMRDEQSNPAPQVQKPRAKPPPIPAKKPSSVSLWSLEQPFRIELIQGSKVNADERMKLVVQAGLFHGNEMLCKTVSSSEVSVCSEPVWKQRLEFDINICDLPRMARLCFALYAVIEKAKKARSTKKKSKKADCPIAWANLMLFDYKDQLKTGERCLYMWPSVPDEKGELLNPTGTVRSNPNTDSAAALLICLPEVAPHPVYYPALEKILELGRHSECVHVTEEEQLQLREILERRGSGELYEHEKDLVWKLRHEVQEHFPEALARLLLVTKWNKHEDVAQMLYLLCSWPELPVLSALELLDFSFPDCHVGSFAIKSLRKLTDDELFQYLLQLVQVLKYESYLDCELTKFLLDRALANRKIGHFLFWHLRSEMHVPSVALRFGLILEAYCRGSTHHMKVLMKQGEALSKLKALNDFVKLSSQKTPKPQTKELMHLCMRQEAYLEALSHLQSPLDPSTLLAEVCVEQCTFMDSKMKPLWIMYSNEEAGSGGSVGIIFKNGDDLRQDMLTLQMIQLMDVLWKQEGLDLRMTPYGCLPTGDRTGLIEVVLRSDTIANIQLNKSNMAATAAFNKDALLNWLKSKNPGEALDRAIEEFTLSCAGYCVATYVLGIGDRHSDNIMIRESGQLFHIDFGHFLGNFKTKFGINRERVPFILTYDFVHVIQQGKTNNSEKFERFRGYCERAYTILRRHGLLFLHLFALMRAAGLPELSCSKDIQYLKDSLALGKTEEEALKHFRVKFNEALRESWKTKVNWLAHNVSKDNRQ
UniProt P19174: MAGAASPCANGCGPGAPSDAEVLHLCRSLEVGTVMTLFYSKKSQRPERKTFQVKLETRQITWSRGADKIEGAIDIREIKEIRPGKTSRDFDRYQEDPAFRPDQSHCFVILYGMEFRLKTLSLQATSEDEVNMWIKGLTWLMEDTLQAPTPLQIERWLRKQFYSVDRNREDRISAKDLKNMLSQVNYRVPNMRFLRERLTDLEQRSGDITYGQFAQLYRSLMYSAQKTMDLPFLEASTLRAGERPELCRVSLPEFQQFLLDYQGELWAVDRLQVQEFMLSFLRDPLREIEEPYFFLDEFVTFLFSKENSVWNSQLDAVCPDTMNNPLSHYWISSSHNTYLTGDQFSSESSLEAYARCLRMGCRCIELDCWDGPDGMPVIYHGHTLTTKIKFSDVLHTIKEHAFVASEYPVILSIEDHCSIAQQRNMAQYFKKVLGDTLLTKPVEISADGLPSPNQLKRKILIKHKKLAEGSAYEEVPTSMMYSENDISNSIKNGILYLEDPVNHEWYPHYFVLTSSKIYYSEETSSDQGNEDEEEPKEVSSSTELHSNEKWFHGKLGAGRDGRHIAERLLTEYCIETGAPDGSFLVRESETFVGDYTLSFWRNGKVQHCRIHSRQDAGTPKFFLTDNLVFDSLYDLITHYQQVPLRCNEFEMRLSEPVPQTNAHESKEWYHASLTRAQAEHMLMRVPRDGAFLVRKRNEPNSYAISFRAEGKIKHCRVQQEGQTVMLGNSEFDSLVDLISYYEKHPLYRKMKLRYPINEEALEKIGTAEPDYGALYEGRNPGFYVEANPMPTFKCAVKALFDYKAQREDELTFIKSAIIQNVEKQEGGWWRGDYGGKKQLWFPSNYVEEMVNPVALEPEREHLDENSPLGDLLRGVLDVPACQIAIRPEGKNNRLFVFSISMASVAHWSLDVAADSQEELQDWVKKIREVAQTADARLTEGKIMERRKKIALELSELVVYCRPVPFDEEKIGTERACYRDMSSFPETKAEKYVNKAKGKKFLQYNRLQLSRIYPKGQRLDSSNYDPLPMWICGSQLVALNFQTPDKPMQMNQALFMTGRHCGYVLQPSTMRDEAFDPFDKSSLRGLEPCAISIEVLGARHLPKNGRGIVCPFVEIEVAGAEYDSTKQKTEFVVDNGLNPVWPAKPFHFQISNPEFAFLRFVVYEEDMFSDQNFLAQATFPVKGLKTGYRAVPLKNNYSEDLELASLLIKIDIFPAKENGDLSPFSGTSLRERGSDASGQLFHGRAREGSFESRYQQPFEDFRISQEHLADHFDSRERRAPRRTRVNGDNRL
UniProt Q99570, whole entry, looked up: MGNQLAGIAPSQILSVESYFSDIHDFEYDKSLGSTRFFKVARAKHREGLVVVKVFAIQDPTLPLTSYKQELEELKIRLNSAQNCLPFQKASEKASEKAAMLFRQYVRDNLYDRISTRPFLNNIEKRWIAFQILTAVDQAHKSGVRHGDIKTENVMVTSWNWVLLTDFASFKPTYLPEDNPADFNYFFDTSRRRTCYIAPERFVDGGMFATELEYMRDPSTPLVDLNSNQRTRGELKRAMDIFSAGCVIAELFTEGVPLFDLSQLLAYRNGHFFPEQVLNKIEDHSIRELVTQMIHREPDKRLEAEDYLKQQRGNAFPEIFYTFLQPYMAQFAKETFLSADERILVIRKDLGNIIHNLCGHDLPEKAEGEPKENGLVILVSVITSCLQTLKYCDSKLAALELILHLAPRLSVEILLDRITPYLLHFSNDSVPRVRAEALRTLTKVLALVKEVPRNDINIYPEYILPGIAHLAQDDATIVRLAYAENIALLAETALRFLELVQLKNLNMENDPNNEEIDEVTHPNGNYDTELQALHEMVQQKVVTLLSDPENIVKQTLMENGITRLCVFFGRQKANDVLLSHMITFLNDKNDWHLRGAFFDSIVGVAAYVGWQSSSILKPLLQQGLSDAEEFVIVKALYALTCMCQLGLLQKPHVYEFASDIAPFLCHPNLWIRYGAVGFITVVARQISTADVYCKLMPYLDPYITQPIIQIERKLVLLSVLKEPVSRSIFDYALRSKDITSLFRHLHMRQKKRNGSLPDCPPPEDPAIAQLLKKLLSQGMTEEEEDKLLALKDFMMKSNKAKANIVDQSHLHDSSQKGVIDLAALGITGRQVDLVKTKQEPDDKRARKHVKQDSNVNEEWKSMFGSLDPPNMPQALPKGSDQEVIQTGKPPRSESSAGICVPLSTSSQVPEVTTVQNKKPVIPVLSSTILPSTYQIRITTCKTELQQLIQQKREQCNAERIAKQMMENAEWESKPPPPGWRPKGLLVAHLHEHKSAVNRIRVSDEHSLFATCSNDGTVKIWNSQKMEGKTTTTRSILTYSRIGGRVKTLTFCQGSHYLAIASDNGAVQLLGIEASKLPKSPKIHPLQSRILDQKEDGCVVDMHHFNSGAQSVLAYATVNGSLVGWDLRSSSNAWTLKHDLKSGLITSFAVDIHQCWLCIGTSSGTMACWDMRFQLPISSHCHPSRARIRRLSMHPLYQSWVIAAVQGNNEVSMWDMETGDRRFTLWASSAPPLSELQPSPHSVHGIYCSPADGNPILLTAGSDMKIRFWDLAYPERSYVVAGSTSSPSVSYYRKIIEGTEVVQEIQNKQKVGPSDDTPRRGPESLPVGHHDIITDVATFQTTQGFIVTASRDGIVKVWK
UniProt Q92508, 366-396: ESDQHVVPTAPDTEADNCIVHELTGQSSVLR
UniProt O94903: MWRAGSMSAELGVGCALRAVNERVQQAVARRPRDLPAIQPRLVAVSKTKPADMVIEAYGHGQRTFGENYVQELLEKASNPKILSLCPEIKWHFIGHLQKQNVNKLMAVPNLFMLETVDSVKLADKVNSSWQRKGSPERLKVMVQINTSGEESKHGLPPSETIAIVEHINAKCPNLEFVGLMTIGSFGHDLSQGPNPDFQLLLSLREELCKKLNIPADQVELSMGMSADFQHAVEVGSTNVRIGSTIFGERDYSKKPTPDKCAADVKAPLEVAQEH
UniProt Q9H8W4: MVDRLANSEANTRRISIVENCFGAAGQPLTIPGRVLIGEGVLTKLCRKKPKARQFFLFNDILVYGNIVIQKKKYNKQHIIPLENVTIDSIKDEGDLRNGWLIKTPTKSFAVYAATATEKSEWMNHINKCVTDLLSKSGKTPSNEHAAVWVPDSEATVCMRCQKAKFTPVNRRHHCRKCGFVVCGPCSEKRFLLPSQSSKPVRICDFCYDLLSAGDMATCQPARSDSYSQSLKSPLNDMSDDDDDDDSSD

compound: ClCC(=O)N[C@@H]1CCCc2ccccc12; experiment: log2 mean competition ratio of IA-DTB cysteine labelling (DMSO/compound) (log2 ratio); higher = stronger cysteine engagement by compound; conditions: 50 µM; treatment time: 4 h; cell line lysate: HEK293T
Method: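 IA-DTB competitive cysteine chemoproteomics in HEK293T RIPA lysate. Lysates were treated with compound 29 or 30 at 50 or 200 µM for 4 h, then IA-DTB (500 µM, 1 h), trypsin-digested, NeutrAvidin-enriched and analysed by diaPASEF. Competition ratio = intensity DMSO / intensity compound (n=4 treated, n=64 DMSO); binding: mean log2 CR ≥ 1 and p ≤ 0.05 plus QC filters. Target is the cysteine site.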

| Target | log2 mean competition ratio |
| --- | --- |
| PNN C249 (UniProt Q9H307) | 0.147 |
| PLK1 C67 (UniProt P53350) | 0.392 |
| POLR1B C689 (UniProt Q9H9Y6) | 0.0742 |
| PKN1 C602 (UniProt Q16512) | -0.295 |
| PNO1 C226 (UniProt Q9NRX1) | 0.0866 |
| POLG C760 | -0.0383 |
| POLD1 C761 (UniProt P28340) | -0.138 |
| PKN3 C288 (UniProt Q6P5Z2) | 0.442 |
| POLR1B C103 (UniProt Q9H9Y6) | -0.294 |

same assay, conditions: 200 µM; treatment time: 4 h; cell line lysate: HEK293T

| Target | log2 mean competition ratio |
| --- | --- |
| PNPLA6 C665 (UniProt Q8IY17) | -0.372 |
| PIK3CD C366 (UniProt O00329) | -0.0495 |
| PKM C152 | -0.518 |
| PICK1 C145 (UniProt Q9NRD5) | 0.29 |
| PMVK C38 (UniProt Q15126) | 0.0327 |
| PLCG1 C881 (UniProt P19174) | 0.163 |
| PIK3R4 C195 (UniProt Q99570) | 0.164 |
| PODXL C344 (UniProt O00592) | 0.0377 |
| PNMA3 C130 | 0.461 |
| POLR1F C193 | -0.361 |
| PI4KA C1761 (UniProt P42356) | -0.2 |
| PLCG1 C646 (UniProt P19174) | 0.00372 |
| PIEZO1 C383 (UniProt Q92508) | 0.156 |
| POLR1E C138 (UniProt Q9GZS1) | -0.0855 |
| POLD1 C428 (UniProt P28340) | 0.104 |
| PLPBP C15 (UniProt O94903) | 0.349 |
| PI4KB C89 (UniProt Q9UBF8) | -0.00208 |
| PLEKHF2 C129 (UniProt Q9H8W4) | -0.235 |
| POLR1D C68 | 0.307 |

| Target | log2 mean competition ratio |
| --- | --- |
| PJA1 C241 | 0.233 |
| PKP4 C492 (UniProt Q99569) | 0.206 |
| PIK3C2A C418 (UniProt O00443) | -0.00911 |
| PITX1 C278 (UniProt P78337) | 0.101 |
| PLEKHA2 C191 (UniProt Q9HB19) | 0.135 |
| PLXNA1 C1744 (UniProt Q9UIW2) | -0.183 |
| PIK3C2A C13 (UniProt O00443) | -0.187 |
| PMM1 C57 (UniProt Q92871) | 0.197 |
| PLBD2 C495 (UniProt Q8NHP8) | -0.102 |
| PNN C249 (UniProt Q9H307) | 0.198 |
| PLK1 C67 (UniProt P53350) | 0.0497 |
| POLR1B C689 (UniProt Q9H9Y6) | 0.144 |
| PKN1 C602 (UniProt Q16512) | -0.561 |
| PNO1 C226 (UniProt Q9NRX1) | -0.1 |
| POLG C760 | -0.0267 |
| POLD1 C761 (UniProt P28340) | 0.205 |
| PKN3 C288 (UniProt Q6P5Z2) | -0.0971 |
| POLR1B C103 (UniProt Q9H9Y6) | -0.0219 |
